PubChem BioAssay AID1224830 | NIAID | 2016

Screen: 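Genes whose knock-down alters the TNF-alpha reporter response to LPS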 (primary screen)
System: human THP-1 monocytic leukaemia cells, TNF dual-luciferase reporter clone, PMA-differentiated to macrophage-like cells
Knock-down reagent: siRNA pool against human genes, 50 nM
Timing: LPS for 4 h, given about 3 days after siRNA transfection
Challenge: bacterial LPS (TLR4 ligand), 10 ng/ml
Measurement: 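Ratio of firefly to renilla light, scaled to the plate median and expressed as a robust z-score per replicate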
Reading the numbers: TNF reporter robust z-score: higher = stronger TNF reporter response to LPS
Call rule: 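a well is active when its z-score exceeds 2.8 or falls below -1.5; control wells carry no call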
The whole screen tested about 18,000 reagents; shown is a random part of them. About 2,900 of them (16%) count as active. 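Calls are made per well; low scores hint the gene aids the LPS response, high scores that it dampens it.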 Repeated entries: four replicate wells of each siRNA pool. Reagent sequences are not shown.

gene knocked down	TNF reporter robust z-score	Outcome
CNIH4	-1.08	inactive
CNIH4	0.1	inactive
CNIH4	1.33	inactive
CNIH4	0.78	inactive
PSKH2	-1.37	inactive
PSKH2	-0.31	inactive
PSKH2	-0.01	inactive
PSKH2	0.41	inactive
LOC402715	4.21	active
LOC402715	1.12	inactive
LOC402715	1.55	inactive
LOC402715	1.32	inactive
OR13C2	0.57	inactive
OR13C2	1.08	inactive
OR13C2	1.4	inactive
OR13C2	1.64	inactive
TBC1D2B	-0.08	inactive
TBC1D2B	-0.93	inactive
TBC1D2B	-1.59	active
TBC1D2B	-1.07	inactive
DUSP5	-1.35	inactive
DUSP5	-0.9	inactive
DUSP5	-1.42	inactive
DUSP5	-1.08	inactive
NEB	0.15	inactive
NEB	1.05	inactive
NEB	0.47	inactive
NEB	1.68	inactive
H3C10	0.34	inactive
H3C10	-0.4	inactive
H3C10	-0.28	inactive
H3C10	-0.21	inactive
PAK4	-0.54	inactive
PAK4	0.84	inactive
PAK4	-0.51	inactive
PAK4	0.69	inactive
PTPRS	-1.37	inactive
PTPRS	-1.43	inactive
PTPRS	-1.2	inactive
PTPRS	-0.92	inactive
CRCT1	2.76	inactive
CRCT1	3.83	active
CRCT1	1.88	inactive
CRCT1	2.79	inactive
RHOA	-0.36	inactive
RHOA	0.21	inactive
RHOA	-0.04	inactive
RHOA	0.1	inactive
EIF4E	-0.58	inactive
EIF4E	-0.65	inactive
EIF4E	-1.05	inactive
EIF4E	-0.36	inactive
GADD45G	0.34	inactive
GADD45G	0.07	inactive
GADD45G	0.33	inactive
GADD45G	-0.49	inactive
METTL18	-0.18	inactive
METTL18	-0.39	inactive
METTL18	0.37	inactive
METTL18	-0.07	inactive
NDST1	0.91	inactive
NDST1	1.44	inactive
NDST1	0.03	inactive
NDST1	0.72	inactive
EIF2AK3	-0.75	inactive
EIF2AK3	0.97	inactive
EIF2AK3	-0.86	inactive
EIF2AK3	-0.08	inactive
C10orf62	-0.72	inactive
C10orf62	0.31	inactive
C10orf62	0.33	inactive
C10orf62	-0.77	inactive
RTKN	0.26	inactive
RTKN	-1	inactive
RTKN	-0.6	inactive
RTKN	-0.27	inactive
PTAFR	-0.31	inactive
PTAFR	-0.22	inactive
PTAFR	1.45	inactive
PTAFR	-0.23	inactive
KRTAP12-1	0.5	inactive
KRTAP12-1	0.54	inactive
KRTAP12-1	0.77	inactive
KRTAP12-1	-0.25	inactive
LEMD3	-0.8	inactive
LEMD3	-0.57	inactive
LEMD3	-1.21	inactive
LEMD3	-0.76	inactive
SMC6	1.42	inactive
SMC6	1.3	inactive
SMC6	0.28	inactive
SMC6	0.6	inactive
TMEM115	-0.7	inactive
TMEM115	-0.26	inactive
TMEM115	-0.3	inactive
TMEM115	0.68	inactive
SGTB	0.06	inactive
SGTB	-0.27	inactive
SGTB	0.18	inactive
SGTB	0.07	inactive
SMPD1	-0.72	inactive
SMPD1	0.21	inactive
SMPD1	-0.58	inactive
SMPD1	-0.49	inactive
PPIP5K1	-0.26	inactive
PPIP5K1	-1.32	inactive
PPIP5K1	-0.28	inactive
PPIP5K1	0.77	inactive
PTK6	-1.28	inactive
PTK6	-1.17	inactive
PTK6	-1.25	inactive
PTK6	-0.87	inactive
